Assay [1] addresses T1, human thrombin receptor (PAR1) (human) (UniProt P25116).
T1 sequence (looked up): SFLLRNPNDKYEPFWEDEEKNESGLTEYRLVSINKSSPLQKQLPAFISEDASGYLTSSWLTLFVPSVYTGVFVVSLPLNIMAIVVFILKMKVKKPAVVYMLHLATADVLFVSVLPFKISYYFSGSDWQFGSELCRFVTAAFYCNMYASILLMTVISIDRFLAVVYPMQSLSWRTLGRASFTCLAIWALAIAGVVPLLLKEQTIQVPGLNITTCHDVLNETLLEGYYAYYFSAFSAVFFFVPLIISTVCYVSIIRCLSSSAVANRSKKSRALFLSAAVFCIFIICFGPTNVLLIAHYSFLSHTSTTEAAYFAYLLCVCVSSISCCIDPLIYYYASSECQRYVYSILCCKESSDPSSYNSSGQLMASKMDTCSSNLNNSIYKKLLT
Kind of assay: panning, G11 library, SF9 EXPRESSED PAR1.

Assay [2] deals with T1, human thrombin receptor (PAR1) (human). Kind of assay: panning, G11 library, CHO EXPRESSED PAR1.
Assay [3] shares this target. Kind of assay: panning, G11 library, Recomb/Reconst PAR1.
Assay [4] shares this target. Kind of assay: panning, LacI-displayed Gq library, purified PAR1 in lipid vesicles.
The target is the same in assay [5]. Kind of assay: panning, LacI-displayed Gq library, CHO PAR1 membranes.
The target is the same in assay [6]. Kind of assay: panning, LacI-displayed Gq library, Sf9 PAR1 membranes.

No constants are given. Whether binding was seen depends on the method and setting. Some binding calls cover weakened binding; strength is not graded here.

The results in this text go back to patent US20080280308A1.

LFLNLKEYSLV: in assay [1], the binding entry is on record as “binds”.
Regarding HQLDLLEYNLG [R2-20 …], the binding entry in assay [2], in assay [3] and in assay [4] was “binds” throughout.
CSLKLKAYNLV [C5-12 …]: the binding entry in assay [2] and in assay [5] was “binds” throughout.
With QLLNQYVYNLV, in assay [2], the binding result was “binds”.
The same measure, in the same setting: as for LQRDHVEYKLF, the entry is “binds”.
For the molecule VQVKLKEYNLV, the binding result in assay [2] and in assay [3] was “binds” throughout.
Turning to LQLKRGEYILV [C4-5 …], the binding entry in assay [2] and in assay [5] was “binds” in each case.
As for LELNLKVYNLV, the binding result in assay [1] is on record as “binds”.
Turning to LQIYLKGYNLV, the binding result in assay [2] and in assay [3] was “binds” each time.
As to LQLNRNEYYLV [C4-19 …], the binding entry in assay [2] and in assay [5] was “binds” throughout.
As to LRLNGKELNLV [C5-10 …], the binding result in assay [2] and in assay [5] was “binds” in each case.
Turning to LQLRVKEYKRG, the binding result in assay [2] and in assay [3] was “binds” in each case.
Consider LKRKLKESNMG, for which the binding result in assay [1] is “binds”.
For LQQSLIEYNLL [R3-37 …], the binding result in assay [2], in assay [3] and in assay [4] was “binds” throughout.
For LQLRYKCYNLV [R2-21 …], the binding entry in assay [2], in assay [3] and in assay [4] was “binds” throughout.
For the molecule MNLTLKECNLV [S3-15 …], the binding result in assay [1] and in assay [6] was “binds” in each case.
Consider LQLNRKNYNLV, for which the binding result in assay [2] is given as “binds”.
In the case of LQLKHKENNLM [S2-26 …], the binding entry in assay [1] and in assay [6] was “binds” each time.
Regarding LQYNLKESFVV, in assay [2], the binding result is “binds”.
In the case of LQRNKKQYNLG [R2-17 …], the binding result in assay [2], in assay [3] and in assay [4] was “binds” in each case.
Turning to LKRKVKEYNLG, in assay [1], the binding entry was “binds”.
On to PQLNLNAYNLV [C7-3 …], for which the binding result in assay [2] and in assay [5] was “binds” each time.
In the case of LQVNLEEYHLV [S2-36 …], the binding entry in assay [1] and in assay [6] was “binds” each time.
Regarding LELNLKVYNLF [S1-23 …], the binding result in assay [1] and in assay [6] was “binds” each time.
With MKLNVSESNLV [S1-13 …], the binding result in assay [1] and in assay [6] was “binds” throughout.
Consider LKRYLKESNLV [S3-10 …], for which the binding result in assay [1] and in assay [6] was “binds” throughout.
Regarding LQMNHNEYNLV [C4-16 …], the binding result in assay [2] and in assay [5] was “binds” throughout.
Regarding LHLNMAEVSLV [S2-30 …], the binding entry in assay [1] and in assay [6] was “binds” each time.
Turning to WRLSLKVYNLV, the binding entry in assay [2] is “binds”.
Consider QRLNVGEYNLV [C7-10 …], for which the binding result in assay [2] and in assay [5] was “binds” each time.
Consider LQFNLNDCNLV [R2-16 …], for which the binding result in assay [2], in assay [3] and in assay [4] was “binds” each time.
Consider LVIKPKEFNLV, for which, in assay [2], the binding result is given as “binds”.
For VHVKLKEYNLV [R3-38 …], the binding result in assay [3] and in assay [4] was “binds” in each case.
As to MKLKLKEDNLV [R2-18 …], the binding result in assay [2], in assay [3] and in assay [4] was “binds” each time.
Turning to LVLNRIEYNLL, the binding result in assay [1] was “binds”.
Turning to LQLDLKESNMV, the binding result in assay [2] is “binds”.
Still for that read-out and setting: as for MQLNLKEYNLV, the entry is “binds”.
For the molecule LQLNLKVYNLV [S1-18 …], the binding result in assay [1] and in assay [6] was “binds” in each case.
Regarding LQKNLKEYNMV [S3-6 …], the binding result in assay [1] and in assay [6] was “binds” throughout.
Take LRLDFSEKQLV: in assay [3], the binding result is on record as “binds”.
Turning to LPLNLIDFSLM, the binding entry in assay [1] is reported as “binds”.
The same measure, in the same setting: in the case of LPRNLKEYDLG it was “binds”; in that of LRLNDIEALLV, “binds”.
Consider LYLDLKEYCLF, for which the binding entry in assay [3] was “binds”.
Consider LPLNPKEYSLV, for which, in assay [1], the binding entry is “binds”.
IQLNLKNYNIV: in assay [2], the binding entry is “binds”.
For the molecule LQMYLRGYNLV [S3-8 …], the binding entry in assay [1] and in assay [6] was “binds” throughout.
On to SAKELDQYNLG, for which the binding entry in assay [3] is given as “binds”.
With LRIYLKGYNLV [R3-46 …], in assay [4], the binding entry is recorded as “binds”.
Regarding LQRNKNQYNLG, the binding result in assay [3] was “binds”.
On to LQLNVKEYNLV [R3-44 …], for which the binding result in assay [2], in assay [3] and in assay [4] was “binds” throughout.
